Assay results as given in doi:10.1101/2021.12.31.471205.
Results are given in words; binding and its absence hold for the method and conditions named. Binding seen in cells or lysates may run through a third protein. Some binding calls cover weakened binding; strength is not graded here.

Sequences of proteins named here, by UniProt entry; tags and fusion partners are left off. A change or cut given only in a name is not applied to a line headed by its entry. A line that says so, or that is headed by a name, gives the form on record, which may keep a tag or linker.
UniProt P55771: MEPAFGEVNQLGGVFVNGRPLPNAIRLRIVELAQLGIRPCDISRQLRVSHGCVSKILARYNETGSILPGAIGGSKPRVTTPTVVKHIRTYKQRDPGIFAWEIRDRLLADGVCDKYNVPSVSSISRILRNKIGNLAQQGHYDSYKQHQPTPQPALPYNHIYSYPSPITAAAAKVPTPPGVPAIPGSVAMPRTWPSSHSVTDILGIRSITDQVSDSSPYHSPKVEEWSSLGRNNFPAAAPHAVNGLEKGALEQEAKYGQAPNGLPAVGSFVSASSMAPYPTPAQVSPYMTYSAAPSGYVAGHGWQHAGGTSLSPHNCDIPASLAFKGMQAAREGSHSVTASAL
GST-PAX9 mutant (p.Cys112Trp, c.336C>G) (P55771, form named): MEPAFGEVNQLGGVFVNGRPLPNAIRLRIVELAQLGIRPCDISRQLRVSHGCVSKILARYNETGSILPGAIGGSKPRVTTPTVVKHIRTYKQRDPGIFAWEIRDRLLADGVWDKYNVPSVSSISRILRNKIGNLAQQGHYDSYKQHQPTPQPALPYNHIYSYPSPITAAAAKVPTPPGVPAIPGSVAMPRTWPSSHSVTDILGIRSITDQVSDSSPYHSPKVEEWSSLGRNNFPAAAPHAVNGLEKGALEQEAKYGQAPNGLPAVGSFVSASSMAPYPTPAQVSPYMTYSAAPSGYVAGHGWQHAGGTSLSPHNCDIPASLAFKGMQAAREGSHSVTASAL
UniProt P28360: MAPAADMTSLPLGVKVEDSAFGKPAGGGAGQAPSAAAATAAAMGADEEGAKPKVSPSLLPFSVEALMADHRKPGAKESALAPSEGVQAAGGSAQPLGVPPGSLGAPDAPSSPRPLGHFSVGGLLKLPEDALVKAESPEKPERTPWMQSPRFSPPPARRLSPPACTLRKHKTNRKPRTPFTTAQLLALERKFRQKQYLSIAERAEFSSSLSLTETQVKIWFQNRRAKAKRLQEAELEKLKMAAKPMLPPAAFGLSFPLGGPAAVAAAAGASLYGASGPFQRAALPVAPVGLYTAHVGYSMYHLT

Key:
[1] = biological target: GST-PAX9 (wild type) (human) (UniProt P55771); test: pull-down
[2] = biological target: GST-PAX9 mutant (p.Cys112Trp, c.336C>G) (human) (UniProt P55771); test: pull-down

In the case of FLAG-MSX1 (from UniProt P28360 1-303), the binding [1] is reported as “binds” and the binding [2] is reported as “binds weakly”.
